PubChem BioAssay AID504467 (National Center for Advancing Translational Sciences (NCATS), 2011)
Out of some 330,000 compounds screened, about 7,700 (2.3%) were called active. Inconclusive results, whose numbers are uncertain, are shown with a selection of clear calls. Calls follow the shape of the dose curve; as a rule, active = well fitted inhibition curve with a large enough effect; inconclusive = small, poorly fitted or top-dose-only effect, or effect the other way; inactive = flat fitted curve, though single readings scatter. A potency beside an inconclusive call is a rough fit, not a confirmed value.

Test: qHTS screen for small molecules that inhibit ELG1-dependent DNA repair in human embryonic kidney (HEK293T) cells expressing luciferase-tagged ELG1; also: nearly all actives have a fitted effect of over 55% in size
Details: HEK293T ELG1-luciferase reporter, luminescence, 16 h, DNA damage induced by 5-fluorouridine; series mostly up to 46.1 µM
How it was run: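 Cells (2,000 per well) received 5-fluorouridine plus test compound or DMSO and were incubated 16 hr at 37 °C, 5% CO2. Luciferase activity was read by luminescence 30 min after ONE-Glo addition; signal suppression marked inhibition of damage-induced ELG1 function.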
Potency is read from the fitted curve at half-maximal effect.

Structure (SMILES) | Potency
Cn1cc(Br)c(C(=O)NNC(=O)c2ccc(Br)cc2)n1 | inconclusive: 14.6 µM [activator, partial curve]
O=C(COc1ccccc1Cl)Nc1cccc(S(=O)(=O)NC2=NCCCCC2)c1 | inactive
CN(C(=O)c1ccncc1)c1nnc(-c2ccccn2)s1 | inconclusive: 23.1 µM [activator, partial curve]
CCN(CC)c1ccc(N=C2C(=O)Nc3ccccc32)cc1 | active: 16.4 µM
CCSc1nnc(NC(=O)Cc2ccc(OC)cc2)s1 | inconclusive: 20.6 µM [activator, single point]
CCOC(=O)N/N=C/c1c[nH]c2ccccc12 | inconclusive: 20.6 µM [activator, single point]
Cc1ccc(-c2nc3c(c(=O)[nH]c(=O)n3CC(C)C)n2CC(C)C)cc1[N+](=O)[O-] | inconclusive: 23.1 µM [inhibitor, single point]
CCC1CCc2c(sc3ncnc(N4CCOCC4)c23)C1 (stereo unspecified) | inconclusive: 18.4 µM [inhibitor, partial curve, poor fit]
CCOc1ccc2nc(NCCCNS(=O)(=O)c3ccccc3)c(C#N)cc2c1 | inconclusive: 18.4 µM [inhibitor, single point]
COCCNC(=O)CCn1nc(-c2ccc(C)cc2)ccc1=O | inactive
Cc1ccc(C(=O)NC(=S)N(C)C2CCCCC2)cc1 | inconclusive: 18.3 µM [activator, partial curve]
O=C(Nc1ccc(Cl)cc1)N1CCC(c2nc(-c3cccs3)no2)CC1 | inconclusive: 29.1 µM [inhibitor, single point]
CN(c1ccccc1)S(=O)(=O)c1ccc(C(=O)NCc2ccco2)cc1 | inactive
Cc1csc(NC(=O)c2cnccn2)n1 | inconclusive: 23.1 µM [activator, partial curve]
CC(Oc1ccccc1Cl)C(=O)Nc1ccccc1C(=O)N1CCOCC1 (stereo unspecified) | inactive
O=C(COc1ccccc1/C=C\c1[nH]c(=O)[nH]c(=O)c1[N+](=O)[O-])Nc1ccccc1 | inconclusive: 20.6 µM [activator, single point]
COc1ccc(/C=C/C(=O)Nc2cccc(F)c2)cc1S(=O)(=O)N1CCOCC1 | active: 20.6 µM
CCOC(=O)C1=C(C)n2c(s/c(=C/c3cccc([N+](=O)[O-])c3)c2=O)=NC1c1ccc(O)c(OC)c1 (stereo unspecified) | inconclusive: 20.6 µM [inhibitor, single point]
CN(CCc1ccccn1)C(=O)CCC1CCCN(C(=O)NC2CCCCC2)C1 (stereo unspecified) | inconclusive: 16.4 µM [activator, single point]
O=C(CSc1nnc(COc2ccc(F)cc2)o1)N1c2ccccc2CCc2ccccc21 | inconclusive: 20.6 µM [inhibitor, partial curve]
CC1CCN(C(=O)COC(=O)c2n[nH]c3ccccc23)CC1 | inconclusive: 10.3 µM [activator, partial curve]
COc1cc(C)c(C(=O)Oc2cc(C)c(C(=O)O)c(O)c2C)c(OC)c1C | inconclusive: 20.6 µM [inhibitor, partial curve, poor fit]
O=C(Nc1ccc(-c2nc3cccnc3s2)cc1)C1CCCO1 (stereo unspecified) | inconclusive: 0.184 µM [activator, full curve]
COc1ccc(N=C2NC(=O)S/C2=C\c2ccc(N(C)C)cc2)cc1 | inconclusive: 14.6 µM [activator, partial curve]

Structure (SMILES) | Potency
Cc1cccc(CC(=O)NCCS(=O)(=O)N2CCN(c3cccc(Cl)c3)CC2)c1 | inconclusive: 32.6 µM [inhibitor, single point]
CCC(CC)C(=O)c1c[nH]c(C(=O)NCc2cccs2)c1 | inconclusive: 29.1 µM [inhibitor, single point]
Cc1c(C)c2ccc(OCC(=O)N3CCOCC3)c(C)c2oc1=O | inactive
O=C(C1CCCN(S(=O)(=O)c2ccccc2)C1)N1CCN(c2ccc(F)cc2)CC1 (stereo unspecified) | active: 11.6 µM
COc1ccccc1CNS(=O)(=O)c1c(C)[nH]c(C)c1C(=O)N1CCCC1 | inactive
O=CN1N=C(c2ccccc2)CC1c1ccc(Cl)cc1 (stereo unspecified) | inactive
O=C(CN1CCCC1)Nc1ccc(F)c(Cl)c1 | inactive
CC(C)CC(=O)Nc1ccc([N+](=O)[O-])cc1Cl | inactive
COc1cc(C)c(S(=O)(=O)NOCc2ccc([N+](=O)[O-])cc2)c(C)c1C | inconclusive: 23.1 µM [inhibitor, single point]
COc1cc(NC(=O)c2ccccc2)c(OC)cc1NC(=O)Cc1ccc(F)cc1 | inactive
COc1ccccc1NC(=O)CSc1nc(=O)n(Cc2ccncc2)c2c1CCCC2 | inactive
Cc1cccc(C)c1NC(=O)Cn1c(=O)c2cccn2c2ccccc21 | inactive
CC1CCN(Cc2nnnn2CCCC(=O)NC(c2ccccn2)C(F)(F)F)CC1 (stereo unspecified) | inactive
CC1(C)CC(=O)C=C(NC2=CC3OC(c4ccccc4)OCC3OC2=O)C1 (stereo unspecified) | active: 13 µM
Cc1cccc(-c2nc3cc([N+](=O)[O-])ccc3o2)c1 | inconclusive: 7.3 µM [activator, partial curve]
O=C(c1cccc(Br)c1)N1CCN(c2cnn(-c3ccccc3)c(=O)c2Cl)CC1 | inactive
O=C(NN=C1CCCC1)c1ccccc1[N+](=O)[O-] | inactive
CN(C)CCCN(C(=O)c1cc(-c2cccs2)nc2ccccc12)c1nc2ccc(F)cc2s1 | inconclusive: 20.6 µM [inhibitor, single point]
Cc1c(-n2cc(C(=O)c3ccccc3O)cc(C#N)c2=O)c(=O)n(-c2ccccc2)n1C | inconclusive: 0.206 µM [activator, single point]
COc1cccc(N2CCN(C(=O)c3oc4ccccc4c3NC(=O)Cc3ccc(OC)c(OC)c3)CC2)c1 | active: 16.4 µM
O=C(/C=C/c1cnc2ccccc2n1)NC1CCCCCC1 | inconclusive: 10.3 µM [activator, partial curve]
COC(=O)N/N=C\c1cc2c(cc1Br)OCO2 | inconclusive: 0.58 µM [inhibitor, single point]
CCOc1ccccc1C=Nc1ccccc1C(=O)Nc1ccccc1 | inconclusive: 32.6 µM [activator, partial curve, poor fit]
CC(OC(=O)c1ccc(S(=O)(=O)NCc2ccco2)cc1)C(=O)Nc1ccc(Cl)cn1 (stereo unspecified) | inconclusive: 25.9 µM [inhibitor, partial curve, poor fit]

Reprinted at random: two records from the list
Structure (SMILES) | Potency
CC1CCN(Cc2nnnn2CCCC(=O)NC(c2ccccn2)C(F)(F)F)CC1 (stereo unspecified) | inactive
Cc1c(-n2cc(C(=O)c3ccccc3O)cc(C#N)c2=O)c(=O)n(-c2ccccc2)n1C | inconclusive: 0.206 µM [activator, single point]

Further records follow:

Structure (SMILES) | Potency
COC(=O)c1ccc(Nc2cc(C)nc3ccccc23)cc1 | inconclusive: 9.2 µM [inhibitor, partial curve, poor fit]
O=C(CSc1nc2[nH]c(=O)cc(O)c2s1)Nc1ccc(Cl)c(C(F)(F)F)c1 | inactive
CCc1cccc(CC)c1NC(=O)COC(=O)CCc1cc(OC)c(OC)c(OC)c1 | inconclusive: 32.6 µM [activator, partial curve, poor fit]
CN(C)c1ccc(C(=O)NNC(=O)Nc2ccccc2)cc1 | inconclusive: 3.26 µM [activator, single point]
O=C(CCCN1C(=O)/C(=C/c2ccccc2Cl)SC1=S)Nc1ccccn1 | inconclusive: 29.1 µM [inhibitor, single point]
O=C(CN1CCc2cc3c(cc2C1)OCCCO3)Nc1cccc([N+](=O)[O-])c1 | inconclusive: 16.4 µM [inhibitor, single point]
CC(=O)c1ccc(C(=O)N2CCCC(CO)(Cc3ccccc3C)C2)s1 (stereo unspecified) | inactive
O=C(NCCCN1CCOCC1)c1ccc2c(=O)n(Cc3ccccc3)c(=S)[nH]c2c1 | inactive
NNC(=O)c1csc(-c2ccc(C(F)(F)F)cc2Cl)n1 | inactive
CC(NC(=O)c1ccccc1)C(=O)OCC(=O)N1c2ccccc2Sc2ccccc21 (stereo unspecified) | inconclusive: 0.0326 µM [inhibitor, full curve, poor fit]
CCOCCCNC(=O)c1cn(CC(C)C)c(=O)c2c1c1ccccc1n2C | inconclusive: 32.6 µM [inhibitor, partial curve, poor fit]
Cc1ccc(S(=O)(=O)N(CC(=O)Nc2ccccc2C(=O)O)c2ccccc2C)cc1 | inactive
CN1CCN(Cc2nc(N)nc(Nc3ccc4c(c3)OCCO4)n2)CC1 | inconclusive: 6.51 µM [activator, single point]
COc1cc(CC(=O)Nc2ccc(N3CCOCC3)cc2)cc(OC)c1OC | inactive
O=C(N/N=C\c1cc2c(cc1Cl)OCO2)c1cccnc1 | inconclusive: 5.17 µM [activator, partial curve]
Cc1[nH]c2ccc(C(=O)Nc3ccncc3)cc2c1C | active: 11.6 µM
COc1cccc(NC(=O)c2cc(Cl)nnc2Cl)c1 | inactive
O=C(CCCN1C(=O)c2ccccc2C1=O)Nc1nc2ccccc2[nH]1 | inactive
Cc1ccc(NC(=O)CSc2nc3ccc(Nc4nc(N5CCOCC5)nc(N5CCOCC5)n4)cc3s2)cc1 | inconclusive: 0.92 µM [inhibitor, full curve]
COc1ccc2[nH]c3c(c2c1)CCN1C(=O)C(CC(=O)NCC24CC5CC(CC(C5)C2)C4)C[C@H](C(=O)N(C(C)C)C(C)C)[C@@]31C (stereo partly specified) | inactive
O=C(CN1CCN(c2ccccc2F)CC1)N1CCc2ccccc21 | inconclusive: 18.3 µM [activator, partial curve, poor fit]
COc1ccc(C(=O)OC(C)CN2CCOCC2)cc1 (stereo unspecified) | inconclusive: 32.6 µM [activator, partial curve, poor fit]
COc1ccc(NC(=O)Nc2ccc3c(c2)C(=O)N([C@H](C)CO)C[C@H](C)[C@@H](CN(C)C(=O)NC2CCCCC2)O3)cc1 | inconclusive: 20.6 µM [activator, single point]

Taken from above:
Value for CN1CCN(Cc2nc(N)nc(Nc3ccc4c(c3)OCCO4)n2)CC1 under Potency: inconclusive: 6.51 µM [activator, single point]
Value for O=C(C1CCCN(S(=O)(=O)c2ccccc2)C1)N1CCN(c2ccc(F)cc2)CC1 (stereo unspecified) under Potency: active: 11.6 µM
